Laboratory results from publication PMC4117634.
No constants are given. Whether binding was seen depends on the method and setting. Binding seen in cells or lysates may run through a third protein. Some results given as binding are weak or reduced against the parent protein; the word gives no strength.

Sequences of proteins named here, by UniProt entry; tags and fusion partners are left off.
UniProt P27986: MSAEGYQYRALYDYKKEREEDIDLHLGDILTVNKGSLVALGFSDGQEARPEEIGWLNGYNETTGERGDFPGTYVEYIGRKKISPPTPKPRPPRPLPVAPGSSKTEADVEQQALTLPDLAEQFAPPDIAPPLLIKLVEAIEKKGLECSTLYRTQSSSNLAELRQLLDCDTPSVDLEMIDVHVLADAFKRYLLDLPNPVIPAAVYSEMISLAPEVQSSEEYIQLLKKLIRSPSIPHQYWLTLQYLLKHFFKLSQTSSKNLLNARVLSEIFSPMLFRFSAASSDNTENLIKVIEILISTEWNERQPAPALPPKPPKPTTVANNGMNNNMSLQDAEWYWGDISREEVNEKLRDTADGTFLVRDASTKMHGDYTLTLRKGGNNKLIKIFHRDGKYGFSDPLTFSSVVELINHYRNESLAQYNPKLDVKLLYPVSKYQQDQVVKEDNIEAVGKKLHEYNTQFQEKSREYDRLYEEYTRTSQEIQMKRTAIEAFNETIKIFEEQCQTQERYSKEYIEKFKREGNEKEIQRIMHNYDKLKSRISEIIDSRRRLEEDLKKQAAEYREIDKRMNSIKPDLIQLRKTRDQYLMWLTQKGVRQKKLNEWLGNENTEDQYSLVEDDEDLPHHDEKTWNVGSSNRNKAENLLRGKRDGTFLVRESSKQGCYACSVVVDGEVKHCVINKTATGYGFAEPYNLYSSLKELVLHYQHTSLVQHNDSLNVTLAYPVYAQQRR
UniProt Q06187: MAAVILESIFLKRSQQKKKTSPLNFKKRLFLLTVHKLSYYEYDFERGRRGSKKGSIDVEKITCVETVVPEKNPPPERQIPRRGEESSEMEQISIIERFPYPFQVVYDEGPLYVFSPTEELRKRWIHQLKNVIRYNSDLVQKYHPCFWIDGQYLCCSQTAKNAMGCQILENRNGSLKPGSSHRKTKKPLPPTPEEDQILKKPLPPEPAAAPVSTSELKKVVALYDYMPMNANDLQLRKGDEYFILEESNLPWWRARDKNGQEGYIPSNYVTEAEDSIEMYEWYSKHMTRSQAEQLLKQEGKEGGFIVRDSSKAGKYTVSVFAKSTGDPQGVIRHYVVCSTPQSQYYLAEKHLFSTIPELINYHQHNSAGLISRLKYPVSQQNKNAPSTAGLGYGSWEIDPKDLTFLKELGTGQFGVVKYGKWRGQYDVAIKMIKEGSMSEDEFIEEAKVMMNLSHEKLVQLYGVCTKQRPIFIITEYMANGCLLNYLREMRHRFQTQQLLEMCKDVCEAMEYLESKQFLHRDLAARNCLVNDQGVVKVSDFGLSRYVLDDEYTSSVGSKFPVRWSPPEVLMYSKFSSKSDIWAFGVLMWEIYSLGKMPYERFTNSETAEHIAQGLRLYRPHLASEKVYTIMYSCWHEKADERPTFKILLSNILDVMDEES
UniProt P58753: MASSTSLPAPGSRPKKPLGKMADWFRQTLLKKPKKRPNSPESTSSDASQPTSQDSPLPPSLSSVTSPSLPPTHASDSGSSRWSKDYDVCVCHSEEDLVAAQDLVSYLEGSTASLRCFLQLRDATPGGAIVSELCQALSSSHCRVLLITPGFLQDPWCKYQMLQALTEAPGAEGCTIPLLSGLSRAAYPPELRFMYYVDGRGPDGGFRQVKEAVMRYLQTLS
UniProt Q99836: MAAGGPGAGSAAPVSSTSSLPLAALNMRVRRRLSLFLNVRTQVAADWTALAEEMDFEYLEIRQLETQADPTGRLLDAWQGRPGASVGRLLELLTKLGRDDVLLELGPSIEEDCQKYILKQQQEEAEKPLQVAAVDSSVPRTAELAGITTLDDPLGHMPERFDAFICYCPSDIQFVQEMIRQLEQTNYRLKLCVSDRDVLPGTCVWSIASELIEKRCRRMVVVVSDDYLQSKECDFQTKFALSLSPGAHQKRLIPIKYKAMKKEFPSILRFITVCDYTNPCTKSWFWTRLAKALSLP

Biological target: p85α, the regulatory subunit of PI3K (human (endogenous in THP-1)) (UniProt P27986)
Test: co-IP; lysates (1 mg protein) of THP-1 cells treated with MALP-2 for the indicated times; 2 µg anti-c-Src or anti-p85α antibody at 4°C for 24 h, then protein A/G beads 24 h at 4°C, washed three times with lysis buffer; immunoblot with anti-Btk, anti-Mal, anti-MyD88, anti-c-Src or anti-p85α

Bruton's tyrosine kinase (Btk) (from UniProt Q06187 1-659) (enzyme)
binding: binds

MyD88 adapter-like (Mal) (from UniProt P58753 1-221)
binding: binds

myeloid differentiation primary response 88 (MyD88) (from UniProt Q99836 1-296)
binding: binds
